The experiment is described as follows: qHTS Assay to Find Inhibitors of Chronic Active B-Cell Receptor Signaling. The conditions noted are these: ABC-DLBCL IkBa-CBG/CBR reporter, luminescence ratio (green luciferase fused to IkBa over red control in TMD8 lymphoma cells), 4 h. In a few lines:
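TMD8 human ABC-DLBCL cells with doxycycline-inducible IκBα–green luciferase fusion and unfused red luciferase, in 0.5% FBS medium; compounds up to 46 uM, 4 h at 37C. Green/red luminescence ratio, filter-overlap corrected, fitted to concentration-response curves.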
(In qHTS, concentration-response curves come from the screen itself.)

[1] abbreviates: measured here: CBR red luminescence, cell number.

For orientation: AC50 means the midpoint of the concentration-response curve, whichever way the signal moves.

SMILES strings stand for the structures. Some of the results follow. These are further read-outs of the screen, such as a control signal, another cell line or another target. No call is given for them. Most of these compounds were active or inconclusive in the main read-out, so they are no random draw. Words in brackets tell the shape of the fitted curve; partial curves, single points and poor fits give uncertain potencies.

Take `CCCc1cc(=O)[nH]c(-n2[nH]c3c(c2=O)CCCC3)n1`: the AC50 under setting [1] is 11.2 µM [falling, partial curve].
The same measure, in the same setting: then `O=C(CS(=O)(=O)c1cn(Cc2ccc(F)cc2)c2ccccc12)N1CCCCC1`, with 0.0651 µM [rising, full curve, poor fit]; and `O=C(Nc1ccc(Br)cc1)c1ccc2c(c1)OCO2`, with 15.8 µM [falling, single point]; and `COC(=O)c1nc(NC(=O)c2ccccc2Cl)n[nH]1`, with 2.06 µM [rising, partial curve, poor fit].
On the same count and under the same terms, then `COc1cccc2c(=O)c3ccccc3oc12`, with 0.794 µM [falling, full curve, poor fit].
Still for that read-out and setting: then `COc1cccc(OC)c1OCCCOc1ccc([N+](=O)[O-])cc1Cl`, with 6.51 µM [rising, full curve, poor fit]; and `O=C(NCCOc1ccccc1)c1n[nH]c(=O)c2ccccc12`, with 0.731 µM [rising, partial curve, poor fit]; and `COc1cc(/C=N\NC(=O)c2nonc2N)c(OC)cc1Br`, with 16.4 µM [rising, partial curve].
Consider `CCCCC(=O)N/N=C/c1ccc(-c2ccc([N+](=O)[O-])cc2)o1`, for which, under setting [1], the AC50 is 14.1 µM [rising, single point].
Same read-out and setting: then `O=C(CCc1ccccc1)NNC(=O)c1ccccc1Cl`, with 12.6 µM [falling, single point]; and `Cc1ccc(Nc2nc(CSc3nnc(-c4cccnc4)n3-c3ccccc3C)cs2)cc1`, with 32.6 µM [falling, single point]; and `COc1cc(C(=O)NNC(=O)c2nn(C)c(=O)c3ccccc23)cc(OC)c1OC`, with 25.9 µM [rising, single point].
The same measure, in the same setting: under `COc1cc(NS(=O)(=O)c2ccc(N/C=C\C(=O)c3ccc(F)cc3)cc2)nc(OC)n1` stands 20.6 µM [falling, single point]; under `CCc1ccc2[nH]c(=O)c(CN(Cc3ccccc3)C(=O)Nc3ccccc3OC)cc2c1`, 16.4 µM [falling, partial curve, poor fit].
`COc1ccc(/C=N/NC(=O)c2cccc(NC(=O)c3ccccc3Cl)c2)cc1`: the AC50 was 1.12 µM [falling, full curve] under setting [1] and 17.8 µM [falling, single point] (measured here: IkBa-CBG green luminescence).
With `COc1ccc(C(=O)Cc2ccc3c(c2)OCO3)c(O)c1`, under setting [1], the AC50 was 6.51 µM [rising, partial curve, poor fit].
Still for that read-out and setting: then `CCCC/C(=N\NC(=O)c1ccc(Br)o1)c1ccccc1`, with 20.6 µM [falling, single point]; and `CCc1cc(C(c2ccccc2OC)N2CCOCC2)c(NC(=O)c2ccccc2)s1` (centres undefined), with 35.5 µM [falling, single point].

The values above are taken from PubChem BioAssay AID493014 (National Center for Advancing Translational Sciences (NCATS), 2011).
